Paper PMC5955916

B1: GFP-tagged full-length wild-type mouse NDE1 (NDE1 WT, amino acids 1-344) (protein, UniProt Q9CZA6 1-344)
chain: MEDSGKTFESEEEETNYWRDLAMTYKQRAENTQEELREFQEGSREYEAELEAQLQQIETRNRDLLSENNRLRMELESVKEKFEMQHSEGYRQISALEDDLAQTKAIKDQLQKYIRELEQANDDLERAKRATIMSLEDFEQRLNQAIERNAFLESELDEKENLLESVQRLKDEARDLRQELAVQQKQDKPRTPMPGSGQAKRTDMAVQATGSVPSTPVAHRGPSSGLNTPGMFRRGLDSSTSGTPLTPAARISALNIVGDLLRKVGALESKLASCRNFMYDQSPSRTSGPASGRGTKNRDGVDRRPGSTSVGDKGSGKRLEFGKPASEPASPALPSAQGVVKLLL
B2: GFP-tagged mouse NDE1 N-terminal region (NDE1 Nt, amino acids 1-182) (domain or fragment, UniProt Q9CZA6 1-182)
chain: MEDSGKTFESEEEETNYWRDLAMTYKQRAENTQEELREFQEGSREYEAELEAQLQQIETRNRDLLSENNRLRMELESVKEKFEMQHSEGYRQISALEDDLAQTKAIKDQLQKYIRELEQANDDLERAKRATIMSLEDFEQRLNQAIERNAFLESELDEKENLLESVQRLKDEARDLRQELAV
B3: GFP-tagged mouse NDE1 DIC-binding region (NDE1 BR, amino acids 1-100) (domain or fragment, UniProt Q9CZA6 1-100)
chain: MEDSGKTFESEEEETNYWRDLAMTYKQRAENTQEELREFQEGSREYEAELEAQLQQIETRNRDLLSENNRLRMELESVKEKFEMQHSEGYRQISALEDDL
B4: GFP-tagged mouse NDE1 C-terminal region (NDE1 Ct, amino acids 176-344) (domain or fragment, UniProt Q9CZA6 176-344)
chain: LRQELAVQQKQDKPRTPMPGSGQAKRTDMAVQATGSVPSTPVAHRGPSSGLNTPGMFRRGLDSSTSGTPLTPAARISALNIVGDLLRKVGALESKLASCRNFMYDQSPSRTSGPASGRGTKNRDGVDRRPGSTSVGDKGSGKRLEFGKPASEPASPALPSAQGVVKLLL

The binders below were run against HA-tagged mouse DIC (dynein intermediate chain), full protein (mouse) (assay: co-IP; HEK293T cells co-transfected with HA-DIC and GFP-NDE1 WT or GFP-tagged NDE1 fragments; lysed in TNE buffer/1% NP40; anti-HA antibody overnight at 4 °C, rProtein G agarose 6 h at 4 °C, five washes with TNE buffer; western blot with anti-GFP antibody).

| Binder | binding |
| --- | --- |
| B1 | binds |
| B2 | binds |
| B3 | binds |
| B4 | no binding |

No constants are given. Whether binding was seen depends on the method and setting. Binding seen in cells or lysates may run through a third protein. Binding calls can cover weak binding; strength is not graded here. Where a sequence is shown, tags or fusion partners need not be part of it.
